Source: patent US20040109857A1 (Novartis, published 2004)
These are yes or no findings as the source states them, for the method shown. Some binding calls cover weakened binding; strength is not graded here.

Sequences of proteins named here, by UniProt entry; tags and fusion partners are left off. A change or cut given only in a name is not applied to a line headed by its entry. A line that says so, or that is headed by a name, gives the form on record, which may keep a tag or linker.
rhesus monkey CD40 expressed on peripheral blood B cells (F6SNI1, form named): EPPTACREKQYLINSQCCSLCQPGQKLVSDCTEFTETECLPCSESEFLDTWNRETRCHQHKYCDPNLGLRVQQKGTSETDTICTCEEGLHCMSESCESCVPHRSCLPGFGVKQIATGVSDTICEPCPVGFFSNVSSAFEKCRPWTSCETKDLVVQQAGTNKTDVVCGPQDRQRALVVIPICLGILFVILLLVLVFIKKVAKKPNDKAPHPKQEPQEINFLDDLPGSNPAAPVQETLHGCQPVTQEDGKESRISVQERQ
UniProt P25942: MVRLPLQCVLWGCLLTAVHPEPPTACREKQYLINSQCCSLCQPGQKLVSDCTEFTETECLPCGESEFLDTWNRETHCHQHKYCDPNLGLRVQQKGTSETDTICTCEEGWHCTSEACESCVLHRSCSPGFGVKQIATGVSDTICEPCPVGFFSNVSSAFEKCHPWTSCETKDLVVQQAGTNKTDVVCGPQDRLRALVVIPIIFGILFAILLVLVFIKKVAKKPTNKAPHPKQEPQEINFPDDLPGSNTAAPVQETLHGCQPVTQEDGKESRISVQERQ

Experiments:
[1] = target: cynomologus monkey CD40 expressed on peripheral blood B cells (cynomologus monkey) (UniProt G7PG38); assay: FACS analysis on peripheral blood B cells
[2] = target: rhesus monkey CD40 expressed on peripheral blood B cells (rhesus monkey) (UniProt F6SNI1); assay: FACS analysis on peripheral blood B cells
[3] = target: chimpanzee CD40 expressed on peripheral blood B cells (chimpanzee) (UniProt K7BNQ5); assay: FACS analysis on peripheral blood B cells
[4] = target: baboon CD40 expressed on peripheral blood B cells (baboon); assay: FACS analysis on peripheral blood B cells
[5] = target: soluble CD40 (Homo sapiens (Human)) (UniProt P25942); assay: ELISA-type assays
[6] = target: purified CD40 (Homo sapiens (Human)) (UniProt P25942); assay: FACS; 15B8 detected with FITC anti-huIgG on CD40L-expressing CHO cells via purified CD40

Measured: binding

B1: 15B8, fully human anti-CD40 monoclonal antibody (antibody, human IgG2, V domains shown)
VH: QVQLQESGGGVVQPGRSLRLSCAASGFTFNNFGIHWVRQAPGKGLEWVAVISYDGSDKYYADSVKGRFTISRDNSKNTLNLQMNSLRAEDTAVYYCARDRRYYYHYYGMDVWGQGTMVTVSS
VL: DIVMTQSPLSLSVAPGQPASISCKSSQSLLESYGETYLYWYLQKPGQPPQLLIYAVFKRFSGVPDRFSGSGSGTDFTLKISRVEAEDVGVYYCMQSMQLPLTFGGGTKVEIK
notes: Human IgG2 isotype with human kappa light chain, from hybridoma 15B8 (Xenomouse); two heavy and two light chains, 1,284 residues in all; In one FACS format it was directly FITC-labelled; also called antagonist anti-CD40 antibody 15B8; 15B8 MAb
binds: all assays above
